Results: publication PMC6379471
These are yes or no findings as the source states them, for the method shown. In cells and extracts the contact can be indirect. Some entries that bind do so weakly or less than the wild type.

Protein sequences, listed by entry. Tags and fused reporters are not part of them. Residues count along the entry.
UniProt Q9QUK6, residues 26-835: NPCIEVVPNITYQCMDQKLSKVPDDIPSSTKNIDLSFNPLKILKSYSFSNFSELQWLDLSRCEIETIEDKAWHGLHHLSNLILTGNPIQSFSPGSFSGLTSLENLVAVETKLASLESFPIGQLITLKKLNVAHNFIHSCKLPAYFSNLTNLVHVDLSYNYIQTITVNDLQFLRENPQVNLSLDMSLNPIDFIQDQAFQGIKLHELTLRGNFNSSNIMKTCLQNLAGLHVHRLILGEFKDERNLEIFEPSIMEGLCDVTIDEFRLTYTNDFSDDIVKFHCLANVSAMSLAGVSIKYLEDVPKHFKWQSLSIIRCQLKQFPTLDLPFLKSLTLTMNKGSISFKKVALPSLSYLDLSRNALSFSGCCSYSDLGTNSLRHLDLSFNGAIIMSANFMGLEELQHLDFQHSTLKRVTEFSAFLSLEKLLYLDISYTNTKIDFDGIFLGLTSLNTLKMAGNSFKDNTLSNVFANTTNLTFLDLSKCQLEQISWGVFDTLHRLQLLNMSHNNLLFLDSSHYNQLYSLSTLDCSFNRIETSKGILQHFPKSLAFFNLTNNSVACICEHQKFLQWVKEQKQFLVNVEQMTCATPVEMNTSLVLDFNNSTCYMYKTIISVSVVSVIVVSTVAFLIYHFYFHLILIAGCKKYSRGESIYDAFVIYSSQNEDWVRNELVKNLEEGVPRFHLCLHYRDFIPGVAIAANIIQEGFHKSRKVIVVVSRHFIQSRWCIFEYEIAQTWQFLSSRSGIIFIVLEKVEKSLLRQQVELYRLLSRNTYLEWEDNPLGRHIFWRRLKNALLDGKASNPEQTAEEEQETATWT
UniProt P05555, residues 17-1153: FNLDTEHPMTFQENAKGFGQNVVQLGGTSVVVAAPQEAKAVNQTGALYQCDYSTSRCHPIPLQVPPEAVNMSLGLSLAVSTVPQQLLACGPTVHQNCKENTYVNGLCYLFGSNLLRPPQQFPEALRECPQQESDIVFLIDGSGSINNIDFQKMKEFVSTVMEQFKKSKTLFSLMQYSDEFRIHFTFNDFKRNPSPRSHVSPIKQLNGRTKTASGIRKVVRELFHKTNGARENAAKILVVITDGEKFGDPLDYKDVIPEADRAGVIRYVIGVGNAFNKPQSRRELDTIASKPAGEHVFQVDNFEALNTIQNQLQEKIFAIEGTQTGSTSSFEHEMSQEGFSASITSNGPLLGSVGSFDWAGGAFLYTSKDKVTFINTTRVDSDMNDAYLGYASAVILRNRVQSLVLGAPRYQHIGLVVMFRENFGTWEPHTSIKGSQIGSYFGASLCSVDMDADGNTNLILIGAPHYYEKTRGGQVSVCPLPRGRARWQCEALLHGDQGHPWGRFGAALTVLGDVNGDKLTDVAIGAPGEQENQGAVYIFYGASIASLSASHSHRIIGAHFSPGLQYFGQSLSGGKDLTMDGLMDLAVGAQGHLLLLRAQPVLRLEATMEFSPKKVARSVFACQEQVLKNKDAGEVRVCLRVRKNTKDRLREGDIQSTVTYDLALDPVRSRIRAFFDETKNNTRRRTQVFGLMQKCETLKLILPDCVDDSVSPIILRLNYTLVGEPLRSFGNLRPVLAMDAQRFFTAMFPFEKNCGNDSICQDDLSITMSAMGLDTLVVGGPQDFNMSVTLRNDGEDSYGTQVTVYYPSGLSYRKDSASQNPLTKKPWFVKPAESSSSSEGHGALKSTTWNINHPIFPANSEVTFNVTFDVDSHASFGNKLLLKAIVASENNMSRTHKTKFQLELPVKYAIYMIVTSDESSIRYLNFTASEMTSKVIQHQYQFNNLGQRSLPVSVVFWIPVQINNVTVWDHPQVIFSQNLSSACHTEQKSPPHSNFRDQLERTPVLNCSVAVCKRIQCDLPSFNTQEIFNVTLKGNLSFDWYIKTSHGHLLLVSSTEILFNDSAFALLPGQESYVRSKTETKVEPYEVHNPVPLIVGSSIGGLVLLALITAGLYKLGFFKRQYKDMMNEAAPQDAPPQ

Columns and labels:
[1] = biological target: TLR4 (mouse (endogenous in BMDMs of C57BL/6 mice)) (UniProt Q9QUK6); experiment: co-IP; endogenous proteins in lysate (modified RIPA buffer) of mouse BMDMs treated with LA1 (20 μM) for 1 or 2 h; immunoprecipitation with anti-CD11b antibody, anti-TLR4 antibody or negative control IgG, Protein A agarose beads, washed three times with cold PBS; western blot
[2] = biological target: CD11b (mouse (endogenous in BMDMs of C57BL/6 mice)) (UniProt P05555); experiment: as above

binding [1] | binding [2] | Substance
binds | – | CD11b (from UniProt P05555 17-1153) (receptor)
– | binds | TLR4 (from UniProt Q9QUK6 26-835) (receptor)
